Assay results from patent US20160274132A1.
These are yes or no findings as the source states them, for the method shown. Some entries that bind do so weakly or less than the wild type.

What was measured:
[1] = biological target: T1, human calcitonin receptor (hCTR) (human) (UniProt P30988); experiment: FACS scatter plots of Jurkat cells
T1 sequence: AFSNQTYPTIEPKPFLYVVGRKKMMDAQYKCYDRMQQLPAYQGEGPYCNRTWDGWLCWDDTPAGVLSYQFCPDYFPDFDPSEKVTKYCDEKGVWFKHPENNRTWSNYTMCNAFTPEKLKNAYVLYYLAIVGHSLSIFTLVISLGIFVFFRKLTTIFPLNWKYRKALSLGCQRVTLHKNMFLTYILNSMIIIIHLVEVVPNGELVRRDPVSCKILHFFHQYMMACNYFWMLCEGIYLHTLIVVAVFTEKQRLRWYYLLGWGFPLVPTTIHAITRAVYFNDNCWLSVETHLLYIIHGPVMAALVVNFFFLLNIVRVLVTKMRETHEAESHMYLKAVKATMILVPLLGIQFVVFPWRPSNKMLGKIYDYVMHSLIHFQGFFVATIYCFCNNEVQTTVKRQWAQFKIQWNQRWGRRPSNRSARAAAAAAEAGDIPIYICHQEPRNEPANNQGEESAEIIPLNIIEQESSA

[2] = biological target: T1, human calcitonin receptor (hCTR) (human); experiment: FACS scatter plots of Jurkat cells with Sytox Red
[3] = biological target: T1, human calcitonin receptor (hCTR) (human); experiment: FACS on cell lines expressing hCTR
[4] = biological target: T1, human calcitonin receptor (hCTR) (human); experiment: FACS of staurosporine-treated Jurkat cells, live staining with 1 ug/mL
[5] = biological target: T1, human calcitonin receptor (hCTR) (human); experiment: FACS histograms of Jurkat cells induced to undergo programmed cell death

Measured: binding

B1: MAb 46/08-2C4 conjugated with AlexaFluor 568 (MAb2C4:AF568) (antibody, V domains shown)
VH: QVHLQQSGAELARPGASVRLSCEASGYTFTKYWMQWIKQRPGQGLEWIGAIYPGDGDSRYTPKFKGKATLTADKSSGTAYIQLSSLASEDSAVYYCARGDGTYWGQGTLVTVSA
VL: DIQMTQSPASLSASVGETVTITCRASENIYSYLAWYQQKQGKSPQLLVYKAKTLEEGVPSRFSGSGSGTQFSLKINSLQPEDFGSYYCQHHYGTPRTFGGGTKLEIK
modifications: AlexaFluor 568 succinimidyl ester conjugate; labelled residues not stated
binds: all assays above
